# Where two headings read alike, the source gives them in different places.
# System: S. aureus MRSA (DSM 11822, ICB 25701)
# Assay: microbe, parasite or virus in culture
# Type: cell-based, methicillin resistant S. aureus
# Details: Staphylococcus aureus, 22 h
# Experimental: The antibacterial effect of the silver NHC complexes and selected ligands was evaluated in two Gram-positive [Enterococcus faecium, methicillin resistant S. aureus, (MRSA)] and in four Gram-negative (Acinetobacter baumannii, Escherichia coli, Klebsiella pneumoniae, and Pseudomonas aeruginosa) pathogenic bacterial strains using broth microdilution assays. The resulting minimal inhibitory concentrations (MICs, Table 2) and EC50 (Table S6) were determined by a curve fitting procedure. Silver nitrate (AgNO3), SSD, and various antibiotics were used as references. […]
# The following strains of ESKAPE panel were utilized and maintained at 37 °C in MHB (21 g/L Müller Hinton broth, pH 7.4) or TSY (30 g/L trypticase soy broth, 3 g/L yeast extract, pH 7.0–7.2) media: A. baumannii (DSM 30007, ATCC 19606), E. coli (DSM1116, ATCC 9637), K. pneumoniae (DSM 11678, ATCC33495), P. aeruginosa PA7 (DSM 24068) in MHB; E. faecium (DSM 20477, ATCC 19434), and S. aureus MRSA (DSM 11822, ICB 25701) in TSY. MIC values were determined following a standardized protocol in broth microdilution assays. […] After incubation of the plates for 22 h at 37 °C, the absorbance at 600 nm was measured using The Spark multimode microplate reader (Tecan Trading AG). The MIC values for the tested compounds were determined in three independent experiments and presented in μM with standard errors and also in μg/mL. […]
smiles,measurement,setting,value
"CC(=O)NC[C@H]1CN(c2ccc(N3CCOCC3)c(F)c2)C(=O)O1 [linezolid, reference compound]",MIC,read-out: MIC MRSA,3.7 µM
same,MIC,read-out: MIC MRSA (value in brackets),1 µg/mL

# — PMC11091889, “Silver Organometallics that are Highly Potent Thioredoxin and Glutathione Reductase Inhibitors: Exploring the Correlations of Solution Chemistry with the Strong Antibacterial Effects” (ACS Infectious Diseases, 2024)
